Results published in US20100143942A1, “METHOD OF DETECTION” (LEIDEN UNIVERSITY, priority 2006, published 2010).

Assay: Titration of a mixture of Hc-Alexa350 and Ty-Cy5 with iodide in air-saturated solution, emission upon excitation at 280 nm
Format: binding
Method: The specificity of the method is illustrated by the data presented in FIG. 7, which show a titration of a mixture of Hc-Alexa350 and Ty-Cy5 with iodide in an air-saturated solution. […] Hc. […] The small fluorescence decrease of the latter can be ascribed to the aspecific collisional quenching of the label and/or the Trp fluorescence by iodide. […] The difference between the experimental Kd and the literature value of 3.0±0.3 mM [15] may be related to its dependence on the [O2] in the sample, which may have varied between the two experiments.

B1: Ty-Cy5: Streptomyces antibioticus tyrosinase labelled at its N-terminus with the dye Cy5 (conjugate, UniProt P07524 2-273, looked up)
Tyrosinase: TVRKNQASLTAEEKRRFVAALLELKRTGRYDAFVTTHNAFILGDTDNGERTGHRSPSFLPWHRRFLLEFERALQSVDASVALPYWDWSADRSTRSSLWAPDFLGGTGRSRDGQVMDGPFAASAGNWPINVRVDGRTFLRRALGAGVSELPTRAEVDSVLAMATYDMAPWNSGSDGFRNHLEGWRGVNLHNRVHVWVGGQMATGVSPNDPVFWLHHAYIDKLWAEWQRRHPSSPYLPGGGTPNVVDLNETMKPWNDTTPAALLDHTRHYTFDV
modifications: N-terminal Cy5 label
behaviour of the dye fluorescence upon increasing [I−] (excitation at 280 nm): an increase in label fluorescence is observed
Hill n (iodide) (fitted to Eq. 1): 1.00
